This experiment deals with XRCC1 central DNA binding domain (CDB, residues 219-415) (human) (UniProt P18887). Briefly: SAXS; XRCC1 219-415 alone at 266, 201, 187 and 93 µM in 20 mM Tris pH 8.0, 100 mM KCl, 3 mM 2-mercaptoethanol, 10 °C; molecular weight from the volume of correlation; both purified.

Sequences of proteins named here, by UniProt entry; tags and fusion partners are left off. Residues count along the entry.
UniProt P18887, residues 219-415: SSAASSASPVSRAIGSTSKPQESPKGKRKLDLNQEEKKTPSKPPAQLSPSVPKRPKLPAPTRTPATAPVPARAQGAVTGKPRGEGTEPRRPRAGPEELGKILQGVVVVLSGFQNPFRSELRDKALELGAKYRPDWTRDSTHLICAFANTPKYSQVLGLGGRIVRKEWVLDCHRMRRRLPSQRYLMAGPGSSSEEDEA

No constants are given. Whether binding was seen depends on the method and setting.

As for “XRCC1 central DNA binding domain (CDB, residues 219-415) (from UniProt P18887 219-415) (domain or fragment)”, the binding entry is “no binding (tested: 93-266 µM)”.

The values are drawn from PMC6395731.
